Results reported in patent publication US12565658B2, “CD33 targeted chimeric antigen receptor modified T cells for treatment of CD33 positive malignancies” (City of Hope, priority 2019, dated 2026).
For at least one compound, name, drawing or mass did not settle the structure.

Tested on: AML cell lines
Assay: CD33 expression on AML cell lines after decitabine
Format: cell-based, human
Conditions: 100 nM decitabine for 2 consecutive days vs DMSO

## Nc1ncn([C@H]2C[C@H](O)[C@@H](CO)O2)c(=O)n1 [decitabine]
  CD33 expression on AML cells: upregulation of CD33 expression
